# Results as given in the supplement of paper PMC8728848.
# Some of the results follow.
# B1: PX9961K-bvu-480-28-480 (Bacteroides vulgatus) (protein)
# chain: NKIPTTMAFRTVTDVDNAVNGLYDLMSGSGYYGAAMFAYGDMKGDDMQSSEESGVCNTCYMFNHRPNSLNAGSLWGRPFYILREAWNILNAIAEGKIESGDEKKLNALKGETMAVIALCQFDLTRCFGYPYTKDKGASLGAPLIDHLVGTYENPPRSTVAQAYDFIIETLEEAVTLMSEEKNNGRMNKYAARALLARIYLYHDDNRKAFDLADQLIKDADTSGSYALYPHEKYVAAWSVEAKFGSESFFEIANSVDDTPGRDSWGYLLNWYGYQKGFVTQKYAEQMLADPGDVRGHLLEENKYAGKTVWWLYKLRGTDLKTAPLECNNVVLRLSEVYLIAAEAGCKLGGDAAVQGLGYLNEIVKRGNPDNEVTMADYTLDRVLDERSKELVGEGHRFFDLLRNGKTIVRKGGYHLPSVDEEVDWDFYKCVLPIPEDQFIFSPEMEQNPGYPKN
# Tests used:
# Test in all cases: glycan array binding signal (z-score within array); higher = stronger binding
# Conditions in all cases: glycan notation: IUPAC condensed, linker removed
# [1] = molecular target: GlcNAc(b1-2)Gal(b1-3)GalNAc
# Summary of the method: (§1)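 Glycan array binding is given as a within-array Z-score, which can be read as non-binding when negative. The arrays, 3228 of them, came from the Consortium for Functional Glycomics database and were retained only where the protein sequence was available. Z-scores were averaged across arrays of the same protein sequence at different concentrations or buffers and across linkers.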
# [2] = molecular target: GlcNAc(b1-2)Man(a1-3)[GlcNAc(b1-2)Man(a1-6)]Man(b1-4)GlcNAc(b1-4)GlcNAc
# Summary of the method: as §1
# [3] = molecular target: GlcNAc(b1-2)Man(a1-3)[GlcNAc(b1-2)Man(a1-6)]Man(b1-4)GlcNAc(b1-4)[Fuc(a1-6)]GlcNAc
# Summary of the method: as §1
# [4] = molecular target: GlcNAc(b1-2)Man(a1-3)[GlcNAc(b1-4)][GlcNAc(b1-2)Man(a1-6)]Man(b1-4)GlcNAc(b1-4)GlcNAc
# Summary of the method: as §1
# [5] = molecular target: GlcNAc(b1-2)Man(a1-3)[GlcNAc(b1-4)][GlcNAc(b1-2)Man(a1-6)]Man(b1-4)GlcNAc(b1-4)[Fuc(a1-6)]GlcNAc
# Summary of the method: as §1
# [6] = molecular target: GlcNAc(b1-2)[GlcNAc(b1-4)]Man(a1-3)[GlcNAc(b1-2)Man(a1-6)]Man(b1-4)GlcNAc(b1-4)GlcNAc
# Summary of the method: as §1
# [7] = molecular target: GlcNAc(b1-2)[GlcNAc(b1-4)]Man(a1-3)[GlcNAc(b1-4)][GlcNAc(b1-2)Man(a1-6)]Man(b1-4)GlcNAc(b1-4)GlcNAc
# Summary of the method: as §1
# [8] = molecular target: GlcNAc(b1-2)[GlcNAc(b1-4)]Man(a1-3)[GlcNAc(b1-4)][GlcNAc(b1-2)[GlcNAc(b1-6)]Man(a1-6)]Man(b1-4)GlcNAc(b1-4)GlcNAc
# Summary of the method: as §1
# [9] = molecular target: GlcNAc(b1-2)[GlcNAc(b1-4)]Man(a1-3)[GlcNAc(b1-4)][GlcNAc(b1-2)[GlcNAc(b1-6)]Man(a1-6)]Man(b1-4)GlcNAc(b1-4)[Fuc(a1-6)]GlcNAc
# Summary of the method: as §1
# [10] = molecular target: GlcNAc(b1-2)[GlcNAc(b1-6)]Man(a1-6)[GlcNAc(b1-2)Man(a1-3)]Man(b1-4)GlcNAc(b1-4)GlcNAc
# Summary of the method: as §1
# [11] = molecular target: GlcNAc(b1-2)[GlcNAc(b1-6)]Man(a1-6)[GlcNAc(b1-2)Man(a1-3)]Man(b1-4)GlcNAc(b1-4)[Fuc(a1-6)]GlcNAc
# Summary of the method: as §1
# [12] = molecular target: GlcNAc(b1-2)[GlcNAc(b1-6)]Man(a1-6)[GlcNAc(b1-4)][GlcNAc(b1-2)Man(a1-3)]Man(b1-4)GlcNAc(b1-4)GlcNAc
# Summary of the method: as §1
# GlcNAc(b1-3)Fuc = molecular target: GlcNAc(b1-3)Fuc
# Summary of the method: as §1
# GlcNAc(b1-3)Gal = molecular target: GlcNAc(b1-3)Gal
# Summary of the method: as §1
# [13] = molecular target: GlcNAc(b1-3)Gal(b1-3)GalNAc
# Summary of the method: as §1
# GlcNAc(b1-3)Gal(b1-4)Glc = molecular target: GlcNAc(b1-3)Gal(b1-4)Glc
# Summary of the method: as §1
# [14] = molecular target: GlcNAc(b1-3)Gal(b1-4)GlcNAc
# Summary of the method: as §1
# [15] = molecular target: GlcNAc(b1-3)Gal(b1-4)GlcNAc(b1-2)Man(a1-3)[GlcNAc(b1-3)Gal(b1-4)GlcNAc(b1-2)Man(a1-6)]Man(b1-4)GlcNAc(b1-4)GlcNAc
# Summary of the method: as §1
# [16] = molecular target: GlcNAc(b1-3)Gal(b1-4)GlcNAc(b1-2)Man(a1-3)[GlcNAc(b1-3)Gal(b1-4)GlcNAc(b1-2)Man(a1-6)]Man(b1-4)GlcNAc(b1-4)[Fuc(a1-6)]GlcNAc
# Summary of the method: as §1
# [17] = molecular target: GlcNAc(b1-3)Gal(b1-4)GlcNAc(b1-2)[GlcNAc(b1-3)Gal(b1-4)GlcNAc(b1-6)]Man(a1-6)[GlcNAc(b1-3)Gal(b1-4)GlcNAc(b1-2)Man(a1-3)]Man(b1-4)GlcNAc(b1-4)GlcNAc
# Summary of the method: as §1
# [18] = molecular target: GlcNAc(b1-3)Gal(b1-4)GlcNAc(b1-3)Gal(b1-4)GlcNAc
# Summary of the method: as §1
# [19] = molecular target: GlcNAc(b1-3)Gal(b1-4)GlcNAc(b1-3)Gal(b1-4)GlcNAc(b1-2)Man(a1-3)[GlcNAc(b1-3)Gal(b1-4)GlcNAc(b1-3)Gal(b1-4)GlcNAc(b1-2)Man(a1-6)]Man(b1-4)GlcNAc(b1-4)GlcNAc
# Summary of the method: as §1
binder,measurement,setting,value
B1,glycan array binding signal (z-score),[1],0.374
same,glycan array binding signal (z-score),[2],-0.374
same,glycan array binding signal (z-score),[3],0.198
same,glycan array binding signal (z-score),[4],0.528
same,glycan array binding signal (z-score),[5],0.291
same,glycan array binding signal (z-score),[6],-0.008
same,glycan array binding signal (z-score),[7],-0.024
same,glycan array binding signal (z-score),[8],0.193
same,glycan array binding signal (z-score),[9],-0.091
same,glycan array binding signal (z-score),[10],0.456
same,glycan array binding signal (z-score),[11],0.616
same,glycan array binding signal (z-score),[12],-0.028
same,glycan array binding signal (z-score),GlcNAc(b1-3)Fuc,1.16
same,glycan array binding signal (z-score),GlcNAc(b1-3)Gal,-0.681
same,glycan array binding signal (z-score),[13],0.801
same,glycan array binding signal (z-score),GlcNAc(b1-3)Gal(b1-4)Glc,-0.284
same,glycan array binding signal (z-score),[14],-0.48
same,glycan array binding signal (z-score),[15],0.679
same,glycan array binding signal (z-score),[16],-0.266
same,glycan array binding signal (z-score),[17],0.824
same,glycan array binding signal (z-score),[18],0.002
same,glycan array binding signal (z-score),[19],0.811

# Random excerpt: 2 entries already listed.
binder,measurement,setting,value
B1,glycan array binding signal (z-score),[13],0.801
same,glycan array binding signal (z-score),[8],0.193
